Results are given in words; binding and its absence hold for the method and conditions named. In cells and extracts the contact can be indirect. Some results given as binding are weak or reduced against the parent protein; the word gives no strength.
Target: Beclin 1 (UniProt Q14457)
Experiment: co-IP; HEK293T lysates in NP-40 buffer with protease inhibitors and PMSF; antibody 2 h, then protein G Dynabeads 2 h; four washes with PBS; immunoblot; cells treated with DMSO or 5 ug/ml flubendazole for 2 h

Sequences of proteins named here, by UniProt entry; tags and fusion partners are left off.
UniProt Q14457: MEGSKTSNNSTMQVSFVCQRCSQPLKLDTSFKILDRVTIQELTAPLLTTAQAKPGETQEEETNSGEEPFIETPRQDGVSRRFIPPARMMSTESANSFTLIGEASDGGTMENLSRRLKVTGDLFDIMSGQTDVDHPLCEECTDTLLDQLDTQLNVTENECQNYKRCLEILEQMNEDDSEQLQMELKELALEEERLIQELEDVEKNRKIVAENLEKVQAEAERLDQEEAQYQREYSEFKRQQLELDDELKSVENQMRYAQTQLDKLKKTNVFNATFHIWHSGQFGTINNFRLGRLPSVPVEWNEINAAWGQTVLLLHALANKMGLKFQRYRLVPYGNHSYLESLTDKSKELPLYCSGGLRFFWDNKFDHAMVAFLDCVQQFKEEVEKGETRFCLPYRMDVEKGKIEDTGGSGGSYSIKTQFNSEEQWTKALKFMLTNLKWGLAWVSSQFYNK
UniProt P10415: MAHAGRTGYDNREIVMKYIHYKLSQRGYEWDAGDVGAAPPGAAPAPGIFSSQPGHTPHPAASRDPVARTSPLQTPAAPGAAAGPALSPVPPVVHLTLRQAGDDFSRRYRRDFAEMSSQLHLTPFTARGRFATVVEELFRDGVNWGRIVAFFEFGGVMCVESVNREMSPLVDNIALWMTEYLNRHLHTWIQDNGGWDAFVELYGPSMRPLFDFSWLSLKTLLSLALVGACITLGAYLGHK

In the case of Bcl-2 (from UniProt P10415 1-239), the binding is reported as “binds”.

Source: publication PMC4624223
